Measured values: patent US8673620B2, “Radioresistant alga of the Coccomyxa genus” (priority 2010, dated 2014)

Legend:
Coccomyxa actinabiotis [1] = experiment: Binding and concentrating of radioactive metals by microalgae, 1 year in pool-like water, gamma-spectrometry; assay type: cell-based; settings: 200 lux, pH 5.5, isotopes 110mAg, 60Co, 51Cr, 65Zn, 54Mn, 124Sb
[2] = test system: cobalt-hyperaccumulating plants; settings: cited from earlier work
Coccomyxa actinabiotis [3] = experiment: Maximum metal concentrations bound (BBM medium diluted 10 times); assay type: cell-based

Structure (SMILES) | concentration factor (metal in microalgae atoms/g fresh matter / metal in water atoms/ml) (Coccomyxa actinabiotis [1]) | also measured
[51Cr] [^51Cr] | 6000 | 
[Ag] [silver] | 450 000 | 
[124Sb] [^124Sb] | 200 | 
[65Zn] [^65Zn] | 3000 | 
[Co+2] [cobalt] | 40 000 | cobalt bound, dry mass ([2]; Bresson et al. 2009): up to 4.3 mg thereof/g; cobalt bound, fresh mass ([2]; approximate conversion): approximately 0.4 mg/g; cobalt bound per gram of fresh biomass (Coccomyxa actinabiotis [3]; 6 days, 1.0×10^−3 mol cobalt per gram of alga): 1.53 mg; cobalt bound per gram of fresh biomass (Coccomyxa actinabiotis [3]; 45 days, 3.8×10^−4 mol cobalt per gram of alga): 12.1 mg
[Mn] [^54Mn] | 1200 | 
